Among the data in patent US20040253723A1 are binding values, retold here.

Amino acid sequences for entries named in this document (tags omitted). Residues count along the entry.
UniProt P01241, residues 27-217: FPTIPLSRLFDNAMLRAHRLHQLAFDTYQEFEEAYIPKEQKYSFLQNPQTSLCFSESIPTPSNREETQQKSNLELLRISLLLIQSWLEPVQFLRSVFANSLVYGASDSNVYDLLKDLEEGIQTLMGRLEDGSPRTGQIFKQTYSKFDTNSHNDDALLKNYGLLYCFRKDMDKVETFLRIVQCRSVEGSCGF

No constants are given. Whether binding was seen depends on the method and setting. Some entries that bind do so weakly or less than the wild type.

The target in this assay is T1, mouse growth hormone receptor (liver microsomal membrane preparation) (mouse) (UniProt P16882).
T1 sequence (looked up): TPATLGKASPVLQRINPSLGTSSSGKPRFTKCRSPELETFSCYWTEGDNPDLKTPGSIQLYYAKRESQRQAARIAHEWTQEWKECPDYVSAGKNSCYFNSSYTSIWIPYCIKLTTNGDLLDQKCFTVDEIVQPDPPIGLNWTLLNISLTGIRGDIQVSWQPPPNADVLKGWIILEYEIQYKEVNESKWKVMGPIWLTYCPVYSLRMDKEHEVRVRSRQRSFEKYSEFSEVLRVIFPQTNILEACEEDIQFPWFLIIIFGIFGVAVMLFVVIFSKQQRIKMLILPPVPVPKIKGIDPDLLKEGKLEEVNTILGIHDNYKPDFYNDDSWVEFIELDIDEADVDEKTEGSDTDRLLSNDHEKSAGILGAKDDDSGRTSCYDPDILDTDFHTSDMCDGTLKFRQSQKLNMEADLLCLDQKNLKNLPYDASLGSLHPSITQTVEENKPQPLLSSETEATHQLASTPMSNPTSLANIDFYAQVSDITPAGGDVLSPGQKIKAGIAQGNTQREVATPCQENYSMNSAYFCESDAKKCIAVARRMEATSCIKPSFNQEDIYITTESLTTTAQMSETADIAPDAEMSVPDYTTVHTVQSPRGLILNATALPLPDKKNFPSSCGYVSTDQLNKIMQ
As to the kind of experiment: [125I]-hGH specific binding to mouse liver microsomal membranes, pellets counted in a gamma counter. In general terms: Liver microsomes are vesicles of endoplasmic reticulum, rich in cytochrome P450 enzymes.

Turning to “iodinated human growth hormone [^125 I] hGH (from UniProt P01241 27-217) (ligand)”, the binding result is on record as “binds”.
